# Measured values reported in US11338025B2, “Vaccine therapy for treatment of endometrial and ovarian cancer” (The Henry M. Jackson Foundation for the Advancement of …, priority 2016, dated 2022).
# At least one peptide structure holds a part that was inferred or is arguable (an end, a ring closure or a residue). Ends that are not written are not given here.
# Tests used:
# [1] = system: endometrial, ovarian, fallopian tube or peritoneal cancer; assay: Recurrence and disease-free survival after E39 or E39′ booster; type: in vivo, human; conditions: for recurrence rate: boost group
# E39 specific CTL = E39 specific CTL levels by Dextramer reagents; type: in vivo, human; conditions: one patient
# [2] = Delayed-type hypersensitivity (DTH) reaction to 100 mcg E39, pre-vaccination and post-PVS; type: in vivo, human; conditions: for DTH (orthogonal mean of induration to E39): all vaccinated patients (VG)
# [3] = system: tumor-associated lymphocyte (TAL); conditions: previous studies (Peoples et al. 1998); cited from earlier work
# [4] = system: endometrial and ovarian cancer, FBPlo / FBPhi; assay: Disease-free survival by FBP expression level (IHC); type: in vivo, human
# [5] = system: endometrial, ovarian, fallopian tube or peritoneal cancer; assay: Clinical recurrence and disease-free survival, phase I/IIa trial of E39+GM-CSF; type: in vivo, human
# [6] = after boosting with E39′ peptide
# [7] = optimal dose (1000 mcg) compared to nOPT patients
sequence,measurement,setting,value
"EIWTFSTKV [E39′, EIWTFSTKV]",hazard ratio (HR) E39′ vs. E39,[1]; B1,0.71
same,estimated 2-year DFS,[1]; B1 pts,66.7%
same,hazard ratio (HR) E39′ vs. E39,[1]; B2,0.82
same,estimated 2-year DFS,[1]; B2 pts,66.7%
same,recurrence rate,[1],22.2%
same,E39 CTL Level,"E39 specific CTL; RC7, 1 month after E39′ booster",.275
same,E39 CTL Level,"E39 specific CTL; RC12, 6 months after E39′ booster, 12 months after PVS",.275
same,increase in level of CTLs over baseline,E39 specific CTL; [6],> 15 fold
same,persistence of increased CTL level after booster,E39 specific CTL; [6],at least 6 months
"EIWTHSYKV [E39, EIWTHSYKV]",DTH (orthogonal mean),"[2]; OPT patients (1000 mcg), post-vaccination",9.5±3.5 mm
same,DTH (orthogonal mean),"[2]; OPT patients (1000 mcg), pre-vaccination",3.8±2.0 mm
same,DTH (orthogonal mean of induration to E39),[2]; post-vaccination,10.3±2.8 mm
same,DTH (orthogonal mean of induration to E39),[2]; pre-vaccination,5.7±1.5 mm
same,DTH (orthogonal mean),"[2]; nOPT patients (<1000 mcg), post-vaccination",11.3±4.8 mm
same,DTH (orthogonal mean),"[2]; nOPT patients (<1000 mcg), pre-vaccination",7.8±2.1 mm
same,estimated 2-year DFS,[1]; B1 pts,58.3%
same,estimated 2-year DFS,[1]; B2 pts,66.7%
same,recurrence rate,[1],25%
same,effect on TAL proliferation and anti-tumor function,[3],capable of enhancing tumor-associated lymphocyte (TAL) proliferation and anti-tumor function
same,DFS,"[4]; FBPhi patients (IHC 2-4+), VG",13.9%
same,DFS,"[4]; FBPlo patients (IHC 0-1+), VG n=8, median follow up 16.3 months",85.7%
same,DFS,[4]; FBPlo patients receiving 1000 mcg,100%
same,DFS,[4]; FBPlo patients receiving <1000 mcg,66.7%
same,reduction in relative risk of recurrence,[5]; OPT (1000 mcg) compared to control group,83%
same,2-year estimated DFS (Kaplan Meier),[5]; OPT group (1000 mcg),85.7%
same,likelihood of recurrence compared to the CG,[5]; OPT group (1000 mcg),approximately five times less likely
same,recurrence rate,[5]; OPT group (1000 mcg),13.3%
same,2-year estimated DFS (Kaplan Meier),"[5]; VG, all doses",43%
same,overall recurrence rate,"[5]; VG, all doses, median follow up 12.0 months",41.4%
same,2-year estimated DFS (Kaplan Meier),[5]; nOPT group (<1000 mcg),20.8%
same,difference in estimated 2-year DFS versus CG,[5]; nOPT group (<1000 mcg),no difference of statistical significance
same,difference in recurrence versus CG patients,[5]; nOPT group (<1000 mcg),no statistically significant difference
same,HR (recurrence),[5]; [7],0.17
same,reduction in relative risk of recurrence,[5]; [7],83%
same,reduction in relative recurrence risk,[5]; vaccinated patients regardless of dose vs control,31%
same,E39 CTL Level,E39 specific CTL; R0 baseline pre-vaccination,0.018
same,E39 CTL Level,"E39 specific CTL; RC1, 1 month after completion of E39 PVS",0.018
same,E39 CTL Level,"E39 specific CTL; RC6, 6 months after completion of E39 PVS, before booster",0.078
same,increase in E39-specific CTLs,E39 specific CTL; by 6 months after completion of the PVS,> 4 fold
same,increase in E39-specific CTLs,E39 specific CTL; immediately after completion of the PVS,not seen
